According to paper PMC13345634, “Dynamic assembly of malate dehydrogenase–citrate synthase multienzyme complex in the mitochondria” (eLife, 2026):
These are yes or no findings as the source states them, for the method shown. For part of these data: Binding seen in cells or lysates may run through a third protein. Some results given as binding are weak or reduced against the parent protein; the word gives no strength. Tags and fused reporters may be left off the sequences shown. Each block holds one binder with its values, some of them ahead of it.

Tests used:
[1] = target: T1, MDH1-SmBiT-cMyc (mitochondrial malate dehydrogenase MDH1 fused at its C-terminus to the small NanoBiT subunit) (S. cerevisiae) (UniProt P17505); test: co-IP; protein extracts of the Split-luc line grown in SD-Raff, 1.5 and 2.5 hr after 2% glucose application; MDH1 precipitated with anti-cMyc agarose, co-precipitated CIT1 detected with anti-HA antibody after SDS-PAGE
T1 sequence: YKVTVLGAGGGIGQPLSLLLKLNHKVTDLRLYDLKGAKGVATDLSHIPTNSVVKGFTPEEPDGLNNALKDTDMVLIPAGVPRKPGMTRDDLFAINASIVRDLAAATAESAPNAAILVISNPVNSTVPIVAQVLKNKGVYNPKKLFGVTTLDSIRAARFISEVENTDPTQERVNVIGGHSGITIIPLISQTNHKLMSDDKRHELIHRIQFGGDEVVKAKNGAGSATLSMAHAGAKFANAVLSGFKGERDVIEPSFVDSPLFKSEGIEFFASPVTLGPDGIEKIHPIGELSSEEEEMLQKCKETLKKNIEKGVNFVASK

[2] = target: T1, MDH1-SmBiT-cMyc (mitochondrial malate dehydrogenase MDH1 fused at its C-terminus to the small NanoBiT subunit) (S. cerevisiae); test: split reporter; NanoBiT split luciferase in living yeast cells (MDH1/CIT1-BiT strain), furimazine substrate, microplate reader, 28°C; cells grown in SD-Raff or SD-Acet; treatments of SD-Raff-grown cells: glucose, fructose, sucrose, galactose, raffinose, phosphate, acetate, ethanol, arsenite, AOA, malonate, cyanide, antimycin, oligomycin, CCCP
[3] = target: T2, recombinant MDH1 (without the mitochondrial targeting signal, C-terminal 6x His tag), fluorescently labeled (S. cerevisiae) (UniProt P17505); test: MST; fluorescently labeled MDH1 as the target, CIT1 as the ligand; Monolith NT.115, room temperature; MST buffer (50 mM Tris-HCl pH 8, 150 mM NaCl, 10 mM MgCl2, 5 mM DTT, 0.05% Tween-20) without or with 10 mM malate, fumarate, α-ketoglutarate, succinate, aspartate or glutamate, or 1.25, 2.5 or 5 mM ATP; both purified
T2 sequence (chain, fluorescent label (Protein Labeling Kit RED-NHS 2nd Generation)): T1 sequence

binding [1]: binds | binding [2]: binds
B1: CIT1-LgBiT-HA (mitochondrial citrate synthase CIT1 fused at its C-terminus to the large NanoBiT subunit) (enzyme, UniProt P00890 38-479)
chain: SSASEQTLKERFAEIIPAKAEEIKKFKKEHGKTVIGEVLLEQAYGGMRGIKGLVWEGSVLDPEEGIRFRGRTIPEIQRELPKAEGSTEPLPEALFWLLLTGEIPTDAQVKALSADLAARSEIPEHVIQLLDSLPKDLHPMAQFSIAVTALESESKFAKAYAQGVSKKEYWSYTFEDSLDLLGKLPVIASKIYRNVFKDGKITSTDPNADYGKNLAQLLGYENKDFIDLMRLYLTIHSDHEGGNVSAHTTHLVGSALSSPYLSLAAGLNGLAGPLHGRANQEVLEWLFKLREEVKGDYSKETIEKYLWDTLNAGRVVPGYGHAVLRKTDPRYTAQREFALKHFPDYELFKLVSTIYEVAPGVLTKHGKTKNPWPNVDSHSGVLLQYYGLTEASFYTVLFGVARAIGVLPQLIIDRAVGAPIERPKSFSTEKYKELVKKIESKN

B2: recombinant CIT1 (without the mitochondrial targeting signal, C-terminal 6x His tag) (enzyme)
chain: B1 chain
binding [3]: binds
